Patent US20240325353A1, “COMPOUND FOR TREATMENT OF COGNITIVE DISORDERS” (Syndesi Therapeutics SA, priority 2021, published 2024)
Further values from the same series stand in other lists.

Test system: brain activity (BOLD signal)
Experiment: pharmaco-MRI (BOLD) neuroimaging study in conscious rats
Type: in vivo, rat
Settings: 20-30 min post injection
Protocol: Test Substance, Reference Substance(s), and Vehicle: the compound of example 1 test substance for dose-dependent change in BOLD signal was provided by Syndesi along with the formula for the vehicle.
Subjects: Forty-eight male Sprague Dawley rats weighing ca 275-300 g were obtained from Charles River Laboratories (Wilmington, MA, USA). Rat were maintained on a 12:12 hour light:dark cycle with a lights on at 0700 hours and allowed access to food and water ad libitum. All rats were acquired and cared for in accordance with the guidelines published in the Guide for the Care and Use of Laboratory Animals (National Institutes of Health Publications No. 85-23, Revised 1985) and adhered to the National Institutes of Health and the American Association for Laboratory Animal Science guidelines.
Acclimation: To reduce the stress associated with head restraint, rats were acclimated to the restraining system (head holder and body tube) one week prior to their actual imaging session. The design of the restraining system (Animal Imaging Research, Holden MA, USA) included a padded head support obviating the need for ear bars helping to reduce animal discomfort while minimizing motion artifact. These acclimation sessions were run each day for 4-5 consecutive days. Rats were briefly anesthetized with 2-3% isoflurane while being secured into the head holder. The forepaws were secured with tape. When fully conscious, the imaging system is placed into a black opaque box “mock scanner” for 30 min with a tape-recording of the MRI pulse sequence to simulate the bore of the magnet and the imaging protocol. A significant decline in respiration, heart rate, motor movements, and plasma corticosterone has been measured when the first and last acclimation periods are compared (King et al., 2005). The reduction in autonomic and somatic measures of arousal and stress improve the signal resolution and quality of the images.
Image Acquisition: Animals were scanned at 300 MHz using a quadrature transmit/receive volume coil built into the rat head holder and restraining system for awake animal imaging (Animal Imaging Research, Holden, MA, USA). The design of the coil provided complete coverage of the brain from olfactory bulbs to brain stem with excellent B1 field homogeneity. Experiments were conducted using a Bruker Biospec 7.0 T/20-cm USR horizontal magnet (Bruker, Billerica, MA, USA) and a 20-G/cm magnetic field gradient insert (ID=12 cm) capable of a 120-μs rise time. At the beginning of each imaging session, a high-resolution anatomical data set was collected using the RARE pulse sequence [22 slice; 1.0 mm; field of view (FOV) 3.0 cm; matrix size 256×256; repetition time (TR) 2.5 s; echo time (TE) 12 ms; NEX 2; 3 min acquisition time]. Functional images were acquired using a multi-slice half-Fourier acquisition single-shot turbo spin echo (HASTE) pulse sequence. Bruker Paravision automatically finds the basic frequency, shims, power requirements for 90° and 180° pulses and sets the receiver gain. A single scanning session acquired 22 slices, 1.0 mm thick, every 6.0 s (TR), using an effective TE of 48 ms, FOV 3.0 cm, matrix size 96×96, NEX 1, and repeated 450 times for a total scanning time of 45 min. The in-plane pixel resolution was 312 μm2.
Data Processing: Data are coregistered to a mean functional image using SPM8's coregistrational code with the following parameters: Quality: 0.97, Smoothing: 0.35 mm, Separation: 0.5 mm. Gaussian smoothing was performed with a FWHM of 0.8 mm. Images were aligned and registered to the 3D rat brain atlas, segmented and labeled with 171 discrete anatomical regions. The alignment process was facilitated by an interactive graphic user interface. The registration process involved translation, rotation and scaling independently and in all three dimensions. Matrices that transformed each subject's anatomy were used to embed each slice within the atlas. […]

O=C1C[C@H](c2cc(F)c(F)c(F)c2)CN1Cn1ncnc1Cl [compound of example 1, (4R)-1-[(5-chloro-1H-1,2,4-triazol-1-yl)methyl]-4-(3,4,5-trifluorophenyl)pyrrolidin-2-one]
median number of positive voxels (positive BOLD volume of activation) (CA2, 0.1 mg/kg i.p.): 0
median number of positive voxels (positive BOLD volume of activation) (CA2, 0.3 mg/kg i.p.): 0
median number of positive voxels (positive BOLD volume of activation) (CA2, 1.0 mg/kg i.p.): 0
median number of positive voxels (positive BOLD volume of activation) (CA3 dorsal, 0.1 mg/kg i.p.): 4
median number of positive voxels (positive BOLD volume of activation) (CA3 dorsal, 0.3 mg/kg i.p.): 4
median number of positive voxels (positive BOLD volume of activation) (CA3 dorsal, 1.0 mg/kg i.p.): 0
median number of positive voxels (positive BOLD volume of activation) (auditory ctx, 0.1 mg/kg i.p.): 27
median number of positive voxels (positive BOLD volume of activation) (auditory ctx, 0.3 mg/kg i.p.): 8
median number of positive voxels (positive BOLD volume of activation) (auditory ctx, 1.0 mg/kg i.p.): 0
median number of positive voxels (positive BOLD volume of activation) (basal amygdaloid nucleus, 0.1 mg/kg i.p.): 22
median number of positive voxels (positive BOLD volume of activation) (basal amygdaloid nucleus, 0.3 mg/kg i.p.): 4
median number of positive voxels (positive BOLD volume of activation) (basal amygdaloid nucleus, 1.0 mg/kg i.p.): 0
median number of positive voxels (positive BOLD volume of activation) (bed nucleus stria terminalis, 0.1 mg/kg i.p.): 29
median number of positive voxels (positive BOLD volume of activation) (bed nucleus stria terminalis, 0.3 mg/kg i.p.): 13
median number of positive voxels (positive BOLD volume of activation) (bed nucleus stria terminalis, 1.0 mg/kg i.p.): 0
median number of positive voxels (positive BOLD volume of activation) (central gray, 0.1 mg/kg i.p.): 3
median number of positive voxels (positive BOLD volume of activation) (central gray, 0.3 mg/kg i.p.): 3
median number of positive voxels (positive BOLD volume of activation) (central gray, 1.0 mg/kg i.p.): 0
median number of positive voxels (positive BOLD volume of activation) (copula of the pyramis, 0.1 mg/kg i.p.): 0
median number of positive voxels (positive BOLD volume of activation) (copula of the pyramis, 0.3 mg/kg i.p.): 11
median number of positive voxels (positive BOLD volume of activation) (copula of the pyramis, 1.0 mg/kg i.p.): 0
median number of positive voxels (positive BOLD volume of activation) (dorsal lateral striatum, 0.1 mg/kg i.p.): 80
median number of positive voxels (positive BOLD volume of activation) (dorsal lateral striatum, 0.3 mg/kg i.p.): 12
median number of positive voxels (positive BOLD volume of activation) (dorsal lateral striatum, 1.0 mg/kg i.p.): 0
median number of positive voxels (positive BOLD volume of activation) (entorhinal ctx, 0.1 mg/kg i.p.): 134
median number of positive voxels (positive BOLD volume of activation) (entorhinal ctx, 0.3 mg/kg i.p.): 75
median number of positive voxels (positive BOLD volume of activation) (entorhinal ctx, 1.0 mg/kg i.p.): 5
median number of positive voxels (positive BOLD volume of activation) (extended amydala, 0.1 mg/kg i.p.): 8
median number of positive voxels (positive BOLD volume of activation) (extended amydala, 0.3 mg/kg i.p.): 2
median number of positive voxels (positive BOLD volume of activation) (extended amydala, 1.0 mg/kg i.p.): 0
median number of positive voxels (positive BOLD volume of activation) (lateral amygdaloid nucleus, 0.3 mg/kg i.p.): 0
median number of positive voxels (positive BOLD volume of activation) (lateral amygdaloid nucleus, 1.0 mg/kg i.p.): 0
median number of positive voxels (positive BOLD volume of activation) (lemniscal nucleus, 0.1 mg/kg i.p.): 12
median number of positive voxels (positive BOLD volume of activation) (lemniscal nucleus, 0.3 mg/kg i.p.): 10
median number of positive voxels (positive BOLD volume of activation) (lemniscal nucleus, 1.0 mg/kg i.p.): 1
median number of positive voxels (positive BOLD volume of activation) (magnocellular preoptic nucleus, 0.1 mg/kg i.p.): 1
median number of positive voxels (positive BOLD volume of activation) (medial amygdaloid nucleus, 0.1 mg/kg i.p.): 18
median number of positive voxels (positive BOLD volume of activation) (medial amygdaloid nucleus, 0.3 mg/kg i.p.): 13
median number of positive voxels (positive BOLD volume of activation) (medial amygdaloid nucleus, 1.0 mg/kg i.p.): 1
median number of positive voxels (positive BOLD volume of activation) (medial cerebellar nucleus fastigial, 0.1 mg/kg i.p.): 0
median number of positive voxels (positive BOLD volume of activation) (medial cerebellar nucleus fastigial, 0.3 mg/kg i.p.): 0
median number of positive voxels (positive BOLD volume of activation) (medial cerebellar nucleus fastigial, 1.0 mg/kg i.p.): 0
median number of positive voxels (positive BOLD volume of activation) (medial geniculate, 0.1 mg/kg i.p.): 3
median number of positive voxels (positive BOLD volume of activation) (medial geniculate, 0.3 mg/kg i.p.): 2
median number of positive voxels (positive BOLD volume of activation) (medial geniculate, 1.0 mg/kg i.p.): 0
median number of positive voxels (positive BOLD volume of activation) (medial orbital ctx, 0.1 mg/kg i.p.): 15
median number of positive voxels (positive BOLD volume of activation) (medial orbital ctx, 0.3 mg/kg i.p.): 12
median number of positive voxels (positive BOLD volume of activation) (medial orbital ctx, 1.0 mg/kg i.p.): 2
median number of positive voxels (positive BOLD volume of activation) (parafascicular thalamic nucleus, 0.1 mg/kg i.p.): 20
median number of positive voxels (positive BOLD volume of activation) (parafascicular thalamic nucleus, 0.3 mg/kg i.p.): 12
median number of positive voxels (positive BOLD volume of activation) (parafascicular thalamic nucleus, 1.0 mg/kg i.p.): 0
median number of positive voxels (positive BOLD volume of activation) (paraflocculus cerebellum, 0.1 mg/kg i.p.): 66
median number of positive voxels (positive BOLD volume of activation) (paraflocculus cerebellum, 0.3 mg/kg i.p.): 42
median number of positive voxels (positive BOLD volume of activation) (paraflocculus cerebellum, 1.0 mg/kg i.p.): 8
median number of positive voxels (positive BOLD volume of activation) (paraventricular nucleus (second entry, P 0.026), 0.1 mg/kg i.p.): 4
median number of positive voxels (positive BOLD volume of activation) (paraventricular nucleus (second entry, P 0.026), 0.3 mg/kg i.p.): 3
median number of positive voxels (positive BOLD volume of activation) (paraventricular nucleus (second entry, P 0.026), 1.0 mg/kg i.p.): 0
median number of positive voxels (positive BOLD volume of activation) (parvicellular reticular n., 0.1 mg/kg i.p.): 5
median number of positive voxels (positive BOLD volume of activation) (parvicellular reticular n., 0.3 mg/kg i.p.): 24
